# Measurements as given in the supplement of paper PMC12067093, “Discovery and optimisation of a covalent ligand for TRIM25 and its application to targeted protein ubiquitination” (Chemical Science, 2025).
# The chains behind the UniProt entries cited, without tags or fusion partners. Where a name states a change or a piece, a line headed by the entry shows the natural chain unless it says otherwise.
# UniProt Q9HBH1: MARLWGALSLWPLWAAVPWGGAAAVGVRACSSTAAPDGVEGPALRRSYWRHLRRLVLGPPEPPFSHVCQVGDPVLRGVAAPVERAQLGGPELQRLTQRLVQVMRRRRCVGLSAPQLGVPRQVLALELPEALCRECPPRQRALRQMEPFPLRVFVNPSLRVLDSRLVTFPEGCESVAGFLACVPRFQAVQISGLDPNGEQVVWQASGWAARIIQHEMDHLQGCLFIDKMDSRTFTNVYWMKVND
# UniProt Q8NCN5: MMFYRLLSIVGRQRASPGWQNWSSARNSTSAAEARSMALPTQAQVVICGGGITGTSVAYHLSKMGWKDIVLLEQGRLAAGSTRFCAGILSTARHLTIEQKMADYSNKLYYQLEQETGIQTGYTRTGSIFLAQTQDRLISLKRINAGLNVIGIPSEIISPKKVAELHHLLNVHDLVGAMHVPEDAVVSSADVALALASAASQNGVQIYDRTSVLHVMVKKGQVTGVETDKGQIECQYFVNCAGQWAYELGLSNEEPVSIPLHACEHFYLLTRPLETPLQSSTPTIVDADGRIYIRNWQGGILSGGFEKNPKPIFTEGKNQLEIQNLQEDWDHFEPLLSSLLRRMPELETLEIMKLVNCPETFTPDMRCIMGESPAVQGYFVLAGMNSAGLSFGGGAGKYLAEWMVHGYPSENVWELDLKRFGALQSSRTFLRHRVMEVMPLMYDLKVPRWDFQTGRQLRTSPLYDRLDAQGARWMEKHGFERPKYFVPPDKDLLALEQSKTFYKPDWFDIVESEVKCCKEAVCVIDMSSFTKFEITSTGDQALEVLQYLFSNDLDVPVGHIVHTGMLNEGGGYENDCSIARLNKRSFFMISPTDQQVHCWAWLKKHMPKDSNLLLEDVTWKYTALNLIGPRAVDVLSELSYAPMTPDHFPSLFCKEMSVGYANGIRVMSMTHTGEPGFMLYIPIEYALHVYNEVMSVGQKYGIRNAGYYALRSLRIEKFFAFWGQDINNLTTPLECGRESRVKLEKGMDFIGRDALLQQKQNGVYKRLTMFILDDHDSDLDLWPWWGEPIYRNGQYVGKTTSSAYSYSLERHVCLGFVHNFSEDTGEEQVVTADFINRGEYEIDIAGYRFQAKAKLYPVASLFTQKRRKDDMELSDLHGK
# UniProt O15530: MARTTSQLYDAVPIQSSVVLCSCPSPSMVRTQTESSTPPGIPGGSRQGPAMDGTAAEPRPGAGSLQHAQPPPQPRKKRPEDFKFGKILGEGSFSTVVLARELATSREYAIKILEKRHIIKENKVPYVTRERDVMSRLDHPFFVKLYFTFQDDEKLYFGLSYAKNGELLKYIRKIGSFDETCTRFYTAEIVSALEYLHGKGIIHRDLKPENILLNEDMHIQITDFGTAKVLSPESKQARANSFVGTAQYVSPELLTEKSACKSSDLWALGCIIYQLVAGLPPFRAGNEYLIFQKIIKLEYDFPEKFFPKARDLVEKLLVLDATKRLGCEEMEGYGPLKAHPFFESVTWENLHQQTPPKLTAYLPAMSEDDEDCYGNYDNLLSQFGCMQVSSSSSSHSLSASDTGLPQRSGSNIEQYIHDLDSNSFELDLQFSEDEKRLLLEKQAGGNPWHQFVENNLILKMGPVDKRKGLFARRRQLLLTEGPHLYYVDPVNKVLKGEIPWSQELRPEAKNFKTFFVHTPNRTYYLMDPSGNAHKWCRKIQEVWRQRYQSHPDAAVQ
# UniProt Q14554: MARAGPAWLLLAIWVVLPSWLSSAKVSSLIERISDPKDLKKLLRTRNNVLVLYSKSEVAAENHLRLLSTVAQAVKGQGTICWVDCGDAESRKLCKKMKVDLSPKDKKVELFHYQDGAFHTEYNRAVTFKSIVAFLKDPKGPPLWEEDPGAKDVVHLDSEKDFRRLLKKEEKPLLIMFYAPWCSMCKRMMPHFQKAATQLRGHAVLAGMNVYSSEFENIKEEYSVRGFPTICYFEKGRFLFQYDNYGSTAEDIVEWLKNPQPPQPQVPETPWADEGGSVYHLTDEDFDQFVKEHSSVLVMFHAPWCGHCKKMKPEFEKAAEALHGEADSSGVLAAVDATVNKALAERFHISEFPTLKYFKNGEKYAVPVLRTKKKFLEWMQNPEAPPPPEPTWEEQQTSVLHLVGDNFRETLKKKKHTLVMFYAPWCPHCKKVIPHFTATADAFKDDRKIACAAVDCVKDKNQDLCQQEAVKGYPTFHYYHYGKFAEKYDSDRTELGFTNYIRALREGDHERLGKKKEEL
# UniProt O00151: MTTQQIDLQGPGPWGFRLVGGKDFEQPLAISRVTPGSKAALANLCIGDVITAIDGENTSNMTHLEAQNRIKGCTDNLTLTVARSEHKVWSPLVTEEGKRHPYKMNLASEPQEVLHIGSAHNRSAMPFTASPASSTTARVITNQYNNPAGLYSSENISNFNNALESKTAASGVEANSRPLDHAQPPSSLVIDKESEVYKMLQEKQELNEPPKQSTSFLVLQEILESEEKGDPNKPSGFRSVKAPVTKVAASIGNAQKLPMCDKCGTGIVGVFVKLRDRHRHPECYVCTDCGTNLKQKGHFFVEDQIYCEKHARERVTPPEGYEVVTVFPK
# UniProt Q96HC4: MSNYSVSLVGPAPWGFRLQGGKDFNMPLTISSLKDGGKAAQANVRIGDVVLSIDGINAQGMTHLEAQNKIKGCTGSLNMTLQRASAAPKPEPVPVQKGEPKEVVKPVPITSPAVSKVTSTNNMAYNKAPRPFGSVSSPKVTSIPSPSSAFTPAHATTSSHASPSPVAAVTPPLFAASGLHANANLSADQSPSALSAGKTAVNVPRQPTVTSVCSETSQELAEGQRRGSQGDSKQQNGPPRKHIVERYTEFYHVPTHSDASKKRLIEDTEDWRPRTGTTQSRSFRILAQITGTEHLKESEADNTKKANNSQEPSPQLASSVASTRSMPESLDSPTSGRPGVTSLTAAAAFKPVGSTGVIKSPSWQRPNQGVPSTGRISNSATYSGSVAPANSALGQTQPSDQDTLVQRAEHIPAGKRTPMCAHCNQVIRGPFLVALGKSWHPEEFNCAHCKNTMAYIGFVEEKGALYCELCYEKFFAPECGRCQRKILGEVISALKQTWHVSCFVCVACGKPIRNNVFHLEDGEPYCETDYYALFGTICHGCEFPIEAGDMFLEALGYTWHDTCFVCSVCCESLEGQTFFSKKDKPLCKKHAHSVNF
# UniProt Q6L8Q7: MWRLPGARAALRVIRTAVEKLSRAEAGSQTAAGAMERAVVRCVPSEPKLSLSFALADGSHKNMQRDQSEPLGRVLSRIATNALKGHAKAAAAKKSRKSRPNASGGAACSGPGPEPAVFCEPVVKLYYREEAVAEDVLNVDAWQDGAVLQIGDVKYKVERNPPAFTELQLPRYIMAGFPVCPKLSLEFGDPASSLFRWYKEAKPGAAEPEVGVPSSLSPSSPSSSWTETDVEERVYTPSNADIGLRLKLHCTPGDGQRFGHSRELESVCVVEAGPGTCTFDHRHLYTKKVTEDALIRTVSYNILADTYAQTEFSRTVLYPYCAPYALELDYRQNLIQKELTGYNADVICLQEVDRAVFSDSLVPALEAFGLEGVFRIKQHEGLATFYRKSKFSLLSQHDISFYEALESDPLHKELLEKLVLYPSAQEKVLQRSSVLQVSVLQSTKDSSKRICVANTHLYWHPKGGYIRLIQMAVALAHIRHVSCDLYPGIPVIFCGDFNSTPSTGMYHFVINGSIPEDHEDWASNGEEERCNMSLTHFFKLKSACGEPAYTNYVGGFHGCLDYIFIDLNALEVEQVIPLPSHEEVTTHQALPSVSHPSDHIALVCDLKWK
# UniProt Q5JVF3: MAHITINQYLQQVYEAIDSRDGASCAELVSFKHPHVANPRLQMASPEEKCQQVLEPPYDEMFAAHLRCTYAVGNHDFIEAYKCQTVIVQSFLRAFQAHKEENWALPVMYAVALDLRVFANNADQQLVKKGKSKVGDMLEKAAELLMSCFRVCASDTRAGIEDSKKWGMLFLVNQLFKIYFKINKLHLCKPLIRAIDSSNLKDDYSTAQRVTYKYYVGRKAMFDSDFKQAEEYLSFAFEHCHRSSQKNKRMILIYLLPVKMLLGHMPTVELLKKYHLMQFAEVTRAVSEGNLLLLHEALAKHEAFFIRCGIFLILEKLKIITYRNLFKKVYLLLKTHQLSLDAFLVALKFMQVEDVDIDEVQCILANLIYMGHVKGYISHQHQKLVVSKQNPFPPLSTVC
# UniProt Q9UKL6: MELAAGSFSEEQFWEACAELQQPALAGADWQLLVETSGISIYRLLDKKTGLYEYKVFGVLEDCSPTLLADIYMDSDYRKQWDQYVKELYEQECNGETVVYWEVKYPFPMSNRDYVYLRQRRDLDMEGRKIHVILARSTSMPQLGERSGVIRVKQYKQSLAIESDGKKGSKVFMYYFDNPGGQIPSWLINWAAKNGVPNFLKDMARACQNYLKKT
# UniProt Q15365, whole entry, looked up: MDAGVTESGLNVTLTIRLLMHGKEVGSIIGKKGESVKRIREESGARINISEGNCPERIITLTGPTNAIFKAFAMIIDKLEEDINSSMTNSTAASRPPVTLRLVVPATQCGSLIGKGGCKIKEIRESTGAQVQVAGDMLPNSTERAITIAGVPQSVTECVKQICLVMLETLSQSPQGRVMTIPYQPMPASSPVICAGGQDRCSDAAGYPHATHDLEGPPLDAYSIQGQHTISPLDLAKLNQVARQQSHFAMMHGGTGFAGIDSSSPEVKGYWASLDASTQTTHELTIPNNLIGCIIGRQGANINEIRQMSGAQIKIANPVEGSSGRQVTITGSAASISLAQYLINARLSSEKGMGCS
# UniProt Q9NTI5: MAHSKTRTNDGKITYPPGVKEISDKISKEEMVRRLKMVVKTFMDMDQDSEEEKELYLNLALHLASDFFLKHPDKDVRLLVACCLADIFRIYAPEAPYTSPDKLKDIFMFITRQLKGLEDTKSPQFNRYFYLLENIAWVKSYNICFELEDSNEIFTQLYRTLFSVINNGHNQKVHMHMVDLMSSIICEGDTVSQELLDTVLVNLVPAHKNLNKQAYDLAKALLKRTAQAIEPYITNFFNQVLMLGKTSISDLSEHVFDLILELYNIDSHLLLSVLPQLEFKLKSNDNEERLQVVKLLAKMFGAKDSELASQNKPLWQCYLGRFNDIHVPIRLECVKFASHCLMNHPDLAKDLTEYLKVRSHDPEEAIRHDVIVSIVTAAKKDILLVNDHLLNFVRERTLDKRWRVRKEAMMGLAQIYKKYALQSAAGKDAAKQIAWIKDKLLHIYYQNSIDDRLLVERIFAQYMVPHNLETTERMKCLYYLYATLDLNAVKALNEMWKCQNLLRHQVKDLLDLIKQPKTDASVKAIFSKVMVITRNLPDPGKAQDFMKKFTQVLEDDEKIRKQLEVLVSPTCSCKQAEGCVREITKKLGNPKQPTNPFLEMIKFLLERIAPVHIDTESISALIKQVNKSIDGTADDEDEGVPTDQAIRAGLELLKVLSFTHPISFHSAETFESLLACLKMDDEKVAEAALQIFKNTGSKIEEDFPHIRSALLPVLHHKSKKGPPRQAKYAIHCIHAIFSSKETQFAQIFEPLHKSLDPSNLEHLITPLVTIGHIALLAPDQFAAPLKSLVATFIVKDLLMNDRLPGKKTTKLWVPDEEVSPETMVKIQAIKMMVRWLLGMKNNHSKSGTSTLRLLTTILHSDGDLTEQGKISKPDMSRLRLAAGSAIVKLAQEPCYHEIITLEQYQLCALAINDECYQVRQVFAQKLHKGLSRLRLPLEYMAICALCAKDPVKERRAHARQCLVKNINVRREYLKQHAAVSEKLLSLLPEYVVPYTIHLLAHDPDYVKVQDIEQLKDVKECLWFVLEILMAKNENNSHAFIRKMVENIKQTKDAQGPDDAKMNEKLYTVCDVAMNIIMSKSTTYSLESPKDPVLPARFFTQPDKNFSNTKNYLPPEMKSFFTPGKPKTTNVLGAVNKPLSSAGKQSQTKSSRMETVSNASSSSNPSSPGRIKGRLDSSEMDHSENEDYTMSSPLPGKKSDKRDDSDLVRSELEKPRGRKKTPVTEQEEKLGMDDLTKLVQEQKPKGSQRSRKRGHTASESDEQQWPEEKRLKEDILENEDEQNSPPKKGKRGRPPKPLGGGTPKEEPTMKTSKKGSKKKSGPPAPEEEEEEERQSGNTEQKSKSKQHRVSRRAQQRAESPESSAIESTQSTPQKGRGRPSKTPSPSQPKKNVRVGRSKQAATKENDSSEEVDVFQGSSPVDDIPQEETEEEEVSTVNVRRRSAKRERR
# UniProt Q9HBI0: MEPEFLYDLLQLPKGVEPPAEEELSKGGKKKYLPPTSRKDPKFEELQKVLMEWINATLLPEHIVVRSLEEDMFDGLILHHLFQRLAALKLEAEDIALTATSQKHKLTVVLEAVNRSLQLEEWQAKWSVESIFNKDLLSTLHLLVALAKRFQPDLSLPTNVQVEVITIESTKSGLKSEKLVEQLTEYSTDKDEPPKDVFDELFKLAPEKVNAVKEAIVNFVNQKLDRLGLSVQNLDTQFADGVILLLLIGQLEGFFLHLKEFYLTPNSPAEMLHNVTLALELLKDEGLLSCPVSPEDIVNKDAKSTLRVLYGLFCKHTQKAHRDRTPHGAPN
# The list shows a part of the results.
# Compound: CC1Cc2ccccc2N1C(=O)C1CCCN(C1)C(=O)CCl (mixture of isomers) [TRIM25 ligand 11 (diastereomer mixture)]
# Assay: probe-labelled cysteine peptide fold change vs DMSO (competition) (log2 fold change); higher = less target engagement (more negative = stronger competition)
# Conditions: THP-1, incubation time: 4 h
# 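Note: competitive chemoproteomic profiling in live THP-1 cells with an iodoacetamide desthiobiotin (IA-DTB) probe, comparing probe-labelled peptide intensities in compound-treated cells against DMSO-treated controls.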
Target,probe-labelled cysteine peptide fold change (10 µM),probe-labelled cysteine peptide fold change (50 µM)
PDF_Q9HBH1_172_LVTFPEGCESVAGFLACVPR (UniProt Q9HBH1),0.391,0.208
PDPR_Q8NCN5_357_LVNCPETFTPDMR (UniProt Q8NCN5),-0.0721,0.18
PDIA6_Q15084_291_RTCEEHQLCVVAVLPHILDTGAAGR (UniProt Q15084),-0.0137,0.146
PDPK1_O15530_181_IGSFDETCTR (UniProt O15530),0.0617,0.181
PCCA_P05165_363_LQVEHPVTECITGLDLVQEMIR (UniProt P05165),0.0511,0.22
PDIA5_Q14554_231_GFPTICYFEK (UniProt Q14554),-0.0352,-0.1
PDLIM1_O00151_283+289_HRHPECYVCTDCGTNLK (UniProt O00151),0.0514,0.005
PCCB_P05166_269_AFENDVDALCNLR (UniProt P05166),0.089,-0.0226
PDS5A_Q29RF7_686_VLSFTHPTSFHSAETYESLLQCLR (UniProt Q29RF7),-0.152,-0.172
PDLIM5_Q96HC4_479_FFAPECGR (UniProt Q96HC4),0.0431,0.0153
PARP1_P09874_908_SANYCHTSQGDPIGLILLGEVALGNMYELK (UniProt P09874),-0.146,-0.761
PCMT1_P22061_43_CNPYMDSPQSIGFQATISAPHMHAYALELLFDQLHEGAK (UniProt P22061),-0.0924,-0.303
PDE12_Q6L8Q7_250_LHCTPGDGQR (UniProt Q6L8Q7),-0.143,-0.0772
PDF_Q9HBH1_132_QVLALELPEALCR (UniProt Q9HBH1),-0.041,-0.0973
PCBP3_P57721_195_QICVVMLESPPK (UniProt P57721),0.012,0.0615
PCNT_O95613_2059_VLEDCQLPK (UniProt O95613),-0.0791,-0.0562
PBK_Q96KB5_22_SVLCSTPTINIPASPFMQK (UniProt Q96KB5),-0.0772,-0.13
PCID2_Q5JVF3_25_DGASCAELVSFK (UniProt Q5JVF3),-0.115,-0.0805
PDE12_Q6L8Q7_530_CNMSLTHFFK (UniProt Q6L8Q7),0.158,-0.161
PDIA3_P30101_57_ISDTGSAGLMLVEFFAPWCGHCK (UniProt P30101),-0.0542,-0.235

# As a short view, part of the list above:
Target,probe-labelled cysteine peptide fold change (10 µM),probe-labelled cysteine peptide fold change (50 µM)
PDE12_Q6L8Q7_250_LHCTPGDGQR (UniProt Q6L8Q7),-0.143,-0.0772
PDF_Q9HBH1_132_QVLALELPEALCR (UniProt Q9HBH1),-0.041,-0.0973

# (list continues)

Target,probe-labelled cysteine peptide fold change (10 µM),probe-labelled cysteine peptide fold change (50 µM)
PCMT1_P22061_102_MVGCTGK (UniProt P22061),-0.232,-0.112
PDPR_Q8NCN5_735_FFAFWGQDINNLTTPLECGR (UniProt Q8NCN5),-0.113,-0.454
PCTP_Q9UKL6_93_ELYEQECNGETVVYWEVK (UniProt Q9UKL6),-0.0461,-0.196
PASK_Q96RG2_991_AVELEGLAACEGEYSQK (UniProt Q96RG2),-0.131,-0.219
PDE12_Q6L8Q7_348_ELTGYNADVICLQEVDR (UniProt Q6L8Q7),0.000438,0.0235
PCBP1_Q15365_194_VMTIPYQPMPASSPVICAGGQDR (UniProt Q15365),0.048,0.139
PCYT1A_P49585_113_NLFPNTYLIVGVCSDELTHNFK (UniProt P49585),-0.118,-0.0946
PDHA1_P08559_41_KCDLHR (UniProt P08559),-0.0144,-0.0807
PDS5B_Q9NTI5_333_FNDIHVPIRLECVK (UniProt Q9NTI5),-0.124,-0.15
PCK2_Q16822_325_VECVGDDIAWMR (UniProt Q16822),0.00283,0.0334
PARP8_Q8N3A8_332_TDDVCVTK (UniProt Q8N3A8),-0.114,0.0553
PDP1_Q9P0J1_132_SAATCLQTR (UniProt Q9P0J1),0.0209,0.00661
PDLIM7_Q9NR12_341_YAPSCAK (UniProt Q9NR12),0.0325,-0.0479
PDLIM2_Q96JY6_334_GHFWVGDELYCEK (UniProt Q96JY6),0.0694,0.0848
PBRM1_Q86U86_1224+1228_EVFLSNLEETCPMTCILGK (UniProt Q86U86),-0.101,-0.263
PDLIM5_Q96HC4_420_TPMCAHCNQVIR (UniProt Q96HC4),-0.109,-0.143
PARVG_Q9HBI0_314_VLYGLFCK (UniProt Q9HBI0),-0.204,0.146
PDS5B_Q9NTI5_1069_LYTVCDVAMNIIMSK (UniProt Q9NTI5),-0.193,-0.0757
PARP1_P09874_845_NTHATTHNAYDLEVIDIFKIEREGECQR (UniProt P09874),-0.308,-0.0779
